Results from PubChem BioAssay AID504834 (National Center for Advancing Translational Sciences (NCATS), 2011).
In all, about 320,000 compounds went through this assay and about 22,000 (6.9%) were called active. The inconclusive results got no clear call from the source; some entries with a clear call stand among them for comparison. The call rests on the fitted dose curve; in most records, active means well fitted inhibition curve with a large enough effect; inconclusive means small, poorly fitted or top-dose-only effect, or another doubt; inactive means no such curve, though single readings can be large or run the other way. A potency beside an inconclusive call is a rough fit, not a confirmed value.

Assay: Primary qHTS for delayed death inhibitors of the malarial parasite plastid, 96 hour incubation
Conditions: P. falciparum luciferase reporter growth; series mostly up to 28.7 µM
How it was run: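 P. falciparum expressing integrated firefly luciferase grown in erythrocytes (2% hematocrit, 0.05% parasitemia final) with compounds for 96 hours at 37 C, 5% CO2. Growth inhibition read as loss of luminescence after adding luciferase detection reagent.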
Potency means the concentration at half of the fitted maximal effect.

| SMILES | Potency |
| --- | --- |
| COc1ccccc1NS(=O)(=O)c1cccc(C(=O)N/N=C/c2c(C)nn(-c3ccccc3)c2N2CCCC2)c1 | inconclusive: 14.7 µM [inhibitor, single point] |
| COc1cc(NS(=O)(=O)c2ccc(NC(=O)c3ccc(Cl)cc3Cl)cc2)ncn1 | inconclusive: 9.28 µM [inhibitor, partial curve, poor fit] |
| Cc1ccc(Nc2n[nH]c(C)c2[N+](=O)[O-])c(C)c1 | inactive |
| COc1ccccc1NS(=O)(=O)c1cc(C(=O)NCC(c2ccco2)N(C)C)ccc1C (stereo unspecified) | inconclusive: 11.7 µM [inhibitor, single point] |
| CC(NCC(=O)Nc1ccccc1C(=O)NC1CC1)c1ccc(S(C)(=O)=O)cc1 (stereo unspecified) | inconclusive: 18.5 µM [inhibitor, single point] |
| Cc1ccc(CN2CCNC(=O)C2CC(=O)N(C)C2CCOCC2)cc1 (stereo unspecified) | inconclusive: 18.5 µM [inhibitor, single point] |
| O=C(c1ccc(Cl)cc1)[C@@H]1[C@@H]2C(=O)N(c3ccccc3)C(=O)[C@@H]2C2c3ccccc3C=NN21 (stereo partly specified) | inactive |
| Cn1c(=O)c2c(SCC(=O)N3CCOCC3)nc(-c3ccccc3Cl)nc2n(C)c1=O | inconclusive: 14.7 µM [inhibitor, partial curve, poor fit] |
| CCCCN=CC1=C(O)CC(c2ccccc2)CC1=O (stereo unspecified) | inactive |
| COc1ccc(C)cc1NC(=O)C(OC(=O)c1cc(C)oc1C)c1ccccc1 (stereo unspecified) | inconclusive: 13.1 µM [inhibitor, single point] |
| CCOc1cc(N2CCOCC2)c(OCC)cc1NC(=O)c1nc2nccc(C)n2n1 | inconclusive: 18.5 µM [inhibitor, single point] |
| Cc1sc2nc(CSCC(=O)Nc3ccc(C(=O)N(C)C)cc3)[nH]c(=O)c2c1C | inactive |
| CCNC(=O)Nc1ccc(-n2nc(C)c(C(=O)OCC)c2C)nc1 | inconclusive: 4.65 µM [inhibitor, partial curve, poor fit] |
| O=C(NC1CCOCC1)C1CCC(=O)N(CCc2cccc(F)c2)C1 (stereo unspecified) | inconclusive: 3.7 µM [inhibitor, single point] |
| Cc1ccc(S(=O)(=O)N2CCCC2C(=O)NCc2ccccc2F)cc1 (stereo unspecified) | inactive |
| Cc1ccc(-c2cc([C@H]3[C@H]4C=CC[C@@H](C)[C@@H]4C(=O)N3Cc3ccccc3)ccc2F)cc1 | inconclusive: 13.1 µM [inhibitor, partial curve, poor fit] |
| COc1ccc(C(=O)Cc2cc(OC)c(OC)cc2C(=O)c2ccccc2F)cc1OC | inconclusive: 11.7 µM [inhibitor, partial curve, poor fit] |
| COc1ccc(S(=O)(=O)N2CCOC2CNC(=O)C(=O)NCCc2ccc(OC)c(OC)c2)cc1C (stereo unspecified) | inconclusive: 14.7 µM [inhibitor, partial curve] |
| COc1ccc(/C=N/OCc2nc3c4c(ncn3n2)Oc2ccc3ccccc3c2C4c2ccccc2)cc1 (stereo unspecified) | inactive |
| CCCCC(=O)N1C/C=C\C(c2ccc(OC)cc2)N(Cc2ccc(F)cc2)C(=O)[C@H]1Cc1ccccc1 (stereo partly specified) | active: 10.4 µM |
| CCNS(=O)(=O)c1ccc(NC(=O)c2ccccc2SCCOC)cc1 | inconclusive: 18.5 µM [inhibitor, single point] |
| O=C(CCN1C(=O)C2CCCCC2C1=O)Nc1ccc(Br)cc1F (stereo unspecified) | inactive |

| SMILES | Potency |
| --- | --- |
| CCCN(CC(=O)Nc1ccccc1OC)C(=O)c1cccc(S(=O)(=O)Nc2ccc(OC)cc2)c1 | inconclusive: 14.7 µM [inhibitor, partial curve] |
| COC(=O)Nc1nn(-c2ccc(Cl)cc2)c(=O)c(C#N)c1C | inconclusive: 10.4 µM [inhibitor, partial curve, poor fit] |
| Cc1ccccc1Cn1cc(NC(=O)c2cc3nc(-c4ccco4)cc(C(F)(F)F)n3n2)cn1 | inactive |
| CCN(CC)S(=O)(=O)c1ccc(F)c(C(=O)NCCC(C)C)c1 | active: 4.15 µM |
| O=[N+]([O-])c1ccc(N2CCN(Cc3ccccc3)CC2)s1 | inactive |
| CC1CC(C)CN(c2oc(-c3ccccc3Cl)nc2C#N)C1 (stereo unspecified) | inconclusive: 8.28 µM [inhibitor, partial curve, poor fit] |
| Cc1cc(Br)ccc1NC(=O)C1CCN(S(=O)(=O)c2cnc[nH]2)CC1 | inactive |
| CC(C)Cc1cc(C(=O)N2CCCC(C(=O)c3cc(F)ccc3F)C2)n(C)n1 (stereo unspecified) | inconclusive: 18.5 µM [inhibitor, single point] |
| O=C(Nc1nnc(SCCN2CCOCC2)s1)C1CC(=O)N(c2ccccc2)C1 (stereo unspecified) | inconclusive: 10.4 µM [inhibitor, single point] |
| O=C(C[n+]1ccccc1)N/N=C/c1ccccc1Cl | inconclusive: 18.5 µM [inhibitor, single point] |
| C=CCN(CC=C)C(=S)NCCc1ccc(OC)c(OC)c1 | inconclusive: 18.5 µM [inhibitor, single point] |
| CC1CCN(CC(=O)c2cccs2)CC1 | inactive |
| Cc1cc(C)cc(NC(=S)NC2CC3CCCC(C2)N3C2CC2)c1 (stereo unspecified) | inactive |
| CCCC(=O)Nc1ccc(C#Cc2ccccc2)cc1 | inactive |
| COc1ccc(-c2c(-c3cc(OC)cc(OC)c3)n(C)c3ccc(-c4cccc5[nH]ccc45)cc23)cc1 | inconclusive: 16.5 µM [inhibitor, partial curve, poor fit] |
| Cc1ccc(Cn2c(=N)c(C(=O)NCC3CCCO3)cc3c(=O)n4cccc(C)c4nc32)cc1 (stereo unspecified) | inconclusive: 10.4 µM [inhibitor, partial curve] |
| COc1ccc(/C=N/NC(=O)CC(=O)NC2CCCCC2)cc1 | inactive |
| Cc1nc2nc(NC(=O)c3ccco3)[nH]n2c(=O)c1C | inconclusive: 0.0037 µM [inhibitor, full curve, poor fit] |
| COc1cccc(/C=N/NC(=O)c2ccccc2N(Cc2ccccc2)S(=O)(=O)c2ccccc2)c1OC | active: 11.7 µM |
| CCOc1ccc(N(CC(=O)Nc2ccccc2C)S(=O)(=O)c2c(C)noc2C)cc1 | inconclusive: 9.28 µM [inhibitor, partial curve] |
| COCCN(CCOC)C(=O)CSc1ccc(S(=O)(=O)N2CCN(C)CC2)cn1 | inconclusive: 9.28 µM [inhibitor, partial curve, poor fit] |
| CC(C)(C)c1ccc(C(=O)CCC(=O)OCC(=O)NCCc2ccc(S(N)(=O)=O)cc2)cc1 | inconclusive: 0.329 µM [inhibitor, full curve, poor fit] |

| SMILES | Potency |
| --- | --- |
| O=C(COc1cc2oc(=O)c3c(c2cc1Cl)CCCC3)NCC1CCC(C(=O)O)CC1 (stereo unspecified) | inconclusive: 13.1 µM [inhibitor, single point] |
| Cc1ccc(S(=O)(=O)c2nc(NCCCn3ccnc3)sc2Cl)cc1 | active: 6.57 µM |
| CN(C)S(=O)(=O)c1cc(NC(=O)CSc2nn(-c3ccc(Cl)cc3)c(=S)s2)ccc1Cl | inconclusive: 10.4 µM [inhibitor, single point] |
| Cc1ccc(NC(=O)C2CCN(S(C)(=O)=O)CC2)c(C)c1 | inconclusive: 18.5 µM [inhibitor, single point] |
| Cc1cc(C)c(NC(=O)COC(=O)CSc2ccc(Br)cc2C)c(C)c1 | inactive |
| Cc1cccc(N2CCN(C(=O)c3ccccc3OCc3c(C)noc3C)CC2)c1C | inconclusive: 9.28 µM [inhibitor, partial curve] |
| Cc1ccc(S(=O)(=O)N2CCN(Cc3cc4c(cc3Br)OCCO4)CC2)cc1 | inconclusive: 11.7 µM [inhibitor, single point] |
| C[C@@H](NC(=O)c1[nH]cnc1C(=O)Nc1ccccc1)c1ccccc1 | inconclusive: 16.5 µM [inhibitor, single point] |
| Cc1nn(C(C)C(=O)NCCc2ccco2)c(=O)c2nn(-c3ccccc3)c(C)c12 (stereo unspecified) | inconclusive: 18.5 µM [inhibitor, single point] |
| C=CCOc1cccc(/C=N/NC(=O)CN2CCCCC2)c1 | inactive |
| Cc1cc(C)c2nc(N3CCN(C)CC3)c(C#N)cc2c1 | inconclusive: 10.4 µM [inhibitor, single point] |
| COc1ccc(C)cc1N(C)C(=O)Cc1c(C(=O)O)n(C)c2ccccc12 | inactive |
| Fc1ccc(Nc2nnc(C(F)(F)F)s2)cc1Cl | inconclusive: 13.1 µM [inhibitor, partial curve, poor fit] |
| CCc1c(C)c(C#N)c2nc3ccccc3n2c1NC | inactive |
| O=C(Nc1ccccn1)c1ccc(NC(=O)c2ccco2)cc1 | inconclusive: 0.0033 µM [inhibitor, full curve, poor fit] |
| CN(Cc1ccccn1)C(=O)CC1C(=O)NCCN1Cc1cccc(Oc2ccccc2)c1 (stereo unspecified) | inconclusive: 11.7 µM [inhibitor, single point] |
| Cc1cccc(NC(=O)Nc2ccc(C#N)cc2)n1 | inconclusive: 0.0033 µM [inhibitor, full curve, poor fit] |
| CCc1cccc2cc3c(N)c(C(=O)Nc4ccc(S(=O)(=O)N5CCCC5)cc4)sc3nc12 | inconclusive: 14.7 µM [inhibitor, single point] |
| COc1cccc(CN(C)C(=O)c2ccc(Oc3ccccc3)cc2)c1OC | inactive |
| CCCC(CCC)C(=O)NC1CCN(Cc2ccccc2)CC1 | inconclusive: 18.5 µM [inhibitor, single point] |
| COc1cc(O)c(C(CCN2CCCCC2)c2ccc(N(C)C)cc2)c(OC)c1 (stereo unspecified) | active: 0.828 µM |
| COc1cc(C)ccc1OCc1cc(C(=O)N(C)CCCN2CCOCC2)no1 | inconclusive: 10.4 µM [inhibitor, partial curve, poor fit] |

Three compounds drawn at random from the list so far, as already listed:

| SMILES | Potency |
| --- | --- |
| CCc1c(C)c(C#N)c2nc3ccccc3n2c1NC | inactive |
| O=C(Nc1ccccn1)c1ccc(NC(=O)c2ccco2)cc1 | inconclusive: 0.0033 µM [inhibitor, full curve, poor fit] |
| Cc1cc(C)c(NC(=O)COC(=O)CSc2ccc(Br)cc2C)c(C)c1 | inactive |
